# According to publication PMC6545562, “Slx5/Slx8‐dependent ubiquitin hotspots on chromatin contribute to stress tolerance” (The EMBO Journal, 2019):
# These are yes or no findings as the source states them, for the method shown. Some entries that bind do so weakly or less than the wild type. Sequences can lack the tags named with a protein.
# T1: BD-Slx5-RING∆ (S. cerevisiae) (UniProt P32828)
# T1 sequence: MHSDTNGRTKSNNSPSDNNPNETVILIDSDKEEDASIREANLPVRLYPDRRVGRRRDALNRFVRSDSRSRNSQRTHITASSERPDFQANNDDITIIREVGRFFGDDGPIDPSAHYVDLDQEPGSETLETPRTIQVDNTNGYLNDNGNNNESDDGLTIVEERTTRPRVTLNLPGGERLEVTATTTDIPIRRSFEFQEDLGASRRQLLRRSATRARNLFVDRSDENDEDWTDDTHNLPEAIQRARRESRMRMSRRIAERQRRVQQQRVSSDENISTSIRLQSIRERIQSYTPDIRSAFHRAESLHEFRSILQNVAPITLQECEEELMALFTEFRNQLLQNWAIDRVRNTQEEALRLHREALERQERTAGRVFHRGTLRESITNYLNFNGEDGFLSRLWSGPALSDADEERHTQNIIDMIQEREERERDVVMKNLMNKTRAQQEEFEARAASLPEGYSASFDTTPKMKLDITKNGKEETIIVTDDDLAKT
# T2: BD-Slx5-Md (Slx5 middle domain, aa 201-335) (S. cerevisiae) (UniProt P32828)
# T2 sequence: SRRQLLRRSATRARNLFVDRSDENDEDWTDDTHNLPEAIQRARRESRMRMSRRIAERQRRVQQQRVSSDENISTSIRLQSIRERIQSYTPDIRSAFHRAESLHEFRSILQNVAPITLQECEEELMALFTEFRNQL
# T3: BD-Slx5, yeast two-hybrid fusion (S. cerevisiae) (UniProt P32828)
# T3 sequence: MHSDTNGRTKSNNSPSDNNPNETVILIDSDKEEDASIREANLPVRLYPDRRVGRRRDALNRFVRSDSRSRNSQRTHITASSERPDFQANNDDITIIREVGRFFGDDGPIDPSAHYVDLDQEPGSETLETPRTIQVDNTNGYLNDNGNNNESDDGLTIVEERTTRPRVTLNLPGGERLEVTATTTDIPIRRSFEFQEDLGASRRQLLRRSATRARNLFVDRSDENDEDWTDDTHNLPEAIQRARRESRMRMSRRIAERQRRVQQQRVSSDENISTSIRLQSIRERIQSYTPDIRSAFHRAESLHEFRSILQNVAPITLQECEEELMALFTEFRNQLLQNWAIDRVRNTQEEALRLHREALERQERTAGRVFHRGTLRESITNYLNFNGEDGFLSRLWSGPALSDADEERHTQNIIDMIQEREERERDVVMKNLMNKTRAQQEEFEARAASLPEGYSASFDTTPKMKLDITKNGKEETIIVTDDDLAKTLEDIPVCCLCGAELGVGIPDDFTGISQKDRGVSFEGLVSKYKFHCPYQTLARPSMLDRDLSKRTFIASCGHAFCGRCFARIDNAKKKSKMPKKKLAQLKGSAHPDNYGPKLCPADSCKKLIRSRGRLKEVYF
# T4: Euc1 (Ymr111c), yeast two-hybrid fusion (S. cerevisiae) (UniProt Q04461)
# T4 sequence: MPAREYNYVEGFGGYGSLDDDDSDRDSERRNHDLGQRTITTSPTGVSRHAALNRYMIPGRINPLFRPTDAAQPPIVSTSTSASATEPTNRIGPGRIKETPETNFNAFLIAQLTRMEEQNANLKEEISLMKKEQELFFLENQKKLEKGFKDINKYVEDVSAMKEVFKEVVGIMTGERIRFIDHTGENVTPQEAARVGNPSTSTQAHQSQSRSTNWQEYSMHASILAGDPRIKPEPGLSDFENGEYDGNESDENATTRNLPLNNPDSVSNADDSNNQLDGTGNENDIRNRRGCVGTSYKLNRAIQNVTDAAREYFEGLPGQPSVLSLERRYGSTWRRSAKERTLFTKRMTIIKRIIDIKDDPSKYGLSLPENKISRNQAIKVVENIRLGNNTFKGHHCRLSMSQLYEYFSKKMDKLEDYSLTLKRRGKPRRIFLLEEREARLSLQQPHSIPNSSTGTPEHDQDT
# B1: AD-Euc1 81-183 (domain or fragment, UniProt Q04461 81-183)
# chain: SASATEPTNRIGPGRIKETPETNFNAFLIAQLTRMEEQNANLKEEISLMKKEQELFFLENQKKLEKGFKDINKYVEDVSAMKEVFKEVVGIMTGERIRFIDHT
# B2: Euc1 (Ymr111c), yeast two-hybrid fusion (protein, UniProt Q04461 1-462)
# chain: MPAREYNYVEGFGGYGSLDDDDSDRDSERRNHDLGQRTITTSPTGVSRHAALNRYMIPGRINPLFRPTDAAQPPIVSTSTSASATEPTNRIGPGRIKETPETNFNAFLIAQLTRMEEQNANLKEEISLMKKEQELFFLENQKKLEKGFKDINKYVEDVSAMKEVFKEVVGIMTGERIRFIDHTGENVTPQEAARVGNPSTSTQAHQSQSRSTNWQEYSMHASILAGDPRIKPEPGLSDFENGEYDGNESDENATTRNLPLNNPDSVSNADDSNNQLDGTGNENDIRNRRGCVGTSYKLNRAIQNVTDAAREYFEGLPGQPSVLSLERRYGSTWRRSAKERTLFTKRMTIIKRIIDIKDDPSKYGLSLPENKISRNQAIKVVENIRLGNNTFKGHHCRLSMSQLYEYFSKKMDKLEDYSLTLKRRGKPRRIFLLEEREARLSLQQPHSIPNSSTGTPEHDQDT
# B3: AD-Euc1 81-183 SBM1 (domain or fragment, UniProt Q04461 81-183)
# chain: SASATEPTNRIGPGRIKETPETNFNAFLIAQLTRMEEQNANLKEEISLMKKEQELFFLANAAALEKGFKDINKYVEDVSAMKEVFKEVVGIMTGERIRFIDHT
# B4: Ubc9, yeast two-hybrid fusion (enzyme, UniProt P50623 1-157)
# chain: MSSLCLQRLQEERKKWRKDHPFGFYAKPVKKADGSMDLQKWEAGIPGKEGTNWAGGVYPITVEYPNEYPSKPPKVKFPAGFYHPNVYPSGTICLSILNEDQDWRPAITLKQIVLGVQDLLDSPNPNSPAQEPAWRSFSRNKAEYDKKVLLQAKQYSK
# B5: AD-Euc1 81-183 SBM2 (domain or fragment, UniProt Q04461 81-183)
# chain: SASATEPTNRIGPGRIKETPETNFNAFLIAQLTRMEEQNANLKEEISLMKKEQELFFLENQKKLEKGFKDINKYVEDVSAMAAAAKEVVGIMTGERIRFIDHT
# B6: Siz1, yeast two-hybrid fusion (enzyme, UniProt Q04195 1-904)
# chain: MINLEDYWEDETPGPDREPTNELRNEVEETITLMELLKVSELKDICRSVSFPVSGRKAVLQDLIRNFLQNALVVGKSDPYRVQAVKFLIERIRKNEPLPVYKDLWNALRKGTPLSAITVRSMEGPPTVQQQSPSVIRQSPTQRRKTSTTSSTSRAPPPTNPDASSSSSSFAVPTIHFKESPFYKIQRLIPELVMNVEVTGGRGMCSAKFKLSKADYNLLSNPNSKHRLYLFSGMINPLGSRGNEPIQFPFPNELRCNNVQIKDNIRGFKSKPGTAKPADLTPHLKPYTQQNNVELIYAFTTKEYKLFGYIVEMITPEQLLEKVLQHPKIIKQATLLYLKKTLREDEEMGLTTTSTIMSLQCPISYTRMKYPSKSINCKHLQCFDALWFLHSQLQIPTWQCPVCQIDIALENLAISEFVDDILQNCQKNVEQVELTSDGKWTAILEDDDDSDSDSNDGSRSPEKGTSVSDHHCSSSHPSEPIIINLDSDDDEPNGNNPHVTNNHDDSNRHSNDNNNNSIKNNDSHNKNNNNNNNNNNNNNDNNNSIENNDSNSNNKHDHGSRSNTPSHNHTKNLMNDNDDDDDDRLMAEITSNHLKSTNTDILTEKGSSAPSRTLDPKSYNIVASETTTPVTNRVIPEYLGNSSSYIGKQLPNILGKTPLNVTAVDNSSHLISPDVSVSSPTPRNTASNASSSALSTPPLIRMSSLDPRGSTVPDKTIRPPINSNSYTASISDSFVQPQESSVFPPREQNMDMSFPSTVNSRFNDPRLNTTRFPDSTLRGATILSNNGLDQRNNSLPTTEAITRNDVGRQNSTPVLPTLPQNVPIRTNSNKSGLPLINNENSVPNPPNTATIPLQKSRLIVNPFIPRRPYSNVLPQKRQLSNTSSTSPIMGTWKTQDYGKKYNSG
# B7: Siz2, yeast two-hybrid fusion (enzyme, UniProt Q12216 1-726)
# chain: MASVMSNNNNNNNNNNASYMFTNPLSNTGGGLINEIKDAINEMEQLKVLELKQICKSLDLSITGKKAVLQDRIKQFLRKSCDIGHIDPWRPKAIKILIAKVRINSSLPKYSTLWETLKTGAFKHPVASGQLPVTALQSTALPPYSQQQALAYSFTSPFYKPIVQIPDANKKLKQSAGRGCTKMKFKVSKSNHDLLKSNKSYKLYLFSGFSIPFIYETVGHEAIDFPYPCELVFNGTKLEDNVKGLKKQNGTGNPANLTPYLKVPTEMNHLDLHYLNIDKEYSISCFIVEVFSPEALLGKILKRPKIIKQATTAYIKRTLNEQDDDDIITTSTVLSLQCPISCTRMKYPAKTDQCKHIQCFDALWFLHSQSQVPTWQCPICQHPIKFDQLKISEFVDNIIQNCNEDVEQVEISVDGSWKPIHNSSAVITDTVNQNHSVKNENQGTVKQEQDYDSRNAFDTNLRNGSNHNEPEIISLDSSDDEAFIPASKSFPTHVNPRNDQLRADIFPSESEGSSDYNPNHTSTPKGSPTMDQDNYQDAFQMRSFLNQGATTNINDTPTNNSSINSFVTATNGDSRIFYNRGPSTPLLPAVLQNLTNQTEAQRNPYGPNYNTTAQDRNLLGIEGDLPPIPPVDPNSEAETELPTRTTSAAHLPPYIHVSTSGHGDDGKIRKRRHSNVSIYIPKNPYATLMKRRPQANHAIMNKTLAQTNDFNTSAQDNSEVVDLTSD
# B8: Euc1-KR (K231R), yeast two-hybrid fusion (protein, UniProt Q04461 1-462)
# chain: MPAREYNYVEGFGGYGSLDDDDSDRDSERRNHDLGQRTITTSPTGVSRHAALNRYMIPGRINPLFRPTDAAQPPIVSTSTSASATEPTNRIGPGRIKETPETNFNAFLIAQLTRMEEQNANLKEEISLMKKEQELFFLENQKKLEKGFKDINKYVEDVSAMKEVFKEVVGIMTGERIRFIDHTGENVTPQEAARVGNPSTSTQAHQSQSRSTNWQEYSMHASILAGDPRIRPEPGLSDFENGEYDGNESDENATTRNLPLNNPDSVSNADDSNNQLDGTGNENDIRNRRGCVGTSYKLNRAIQNVTDAAREYFEGLPGQPSVLSLERRYGSTWRRSAKERTLFTKRMTIIKRIIDIKDDPSKYGLSLPENKISRNQAIKVVENIRLGNNTFKGHHCRLSMSQLYEYFSKKMDKLEDYSLTLKRRGKPRRIFLLEEREARLSLQQPHSIPNSSTGTPEHDQDT
# B9: Euc1 1-140, yeast two-hybrid fusion (domain or fragment, UniProt Q04461 1-140)
# chain: MPAREYNYVEGFGGYGSLDDDDSDRDSERRNHDLGQRTITTSPTGVSRHAALNRYMIPGRINPLFRPTDAAQPPIVSTSTSASATEPTNRIGPGRIKETPETNFNAFLIAQLTRMEEQNANLKEEISLMKKEQELFFLEN
# Legend:
# [1] = molecular target: T1, BD-Slx5-RING∆ (S. cerevisiae); experiment: two-hybrid; Euc1 constructs against BD-Slx5 constructs, performed as in Fig 4A; serial dilutions spotted, 30°C, 2 to 4 days
# [2] = molecular target: T2, BD-Slx5-Md (Slx5 middle domain, aa 201-335) (S. cerevisiae); experiment: as above
# [3] = molecular target: T3, BD-Slx5, yeast two-hybrid fusion (S. cerevisiae); experiment: as above
# [4] = molecular target: AD-Euc1 81-183 (S. cerevisiae) (UniProt Q04461); experiment: two-hybrid; Euc1 dimerization in Y2H (Appendix Fig S5C, D and S6B); details not shown
# [5] = molecular target: T4, Euc1 (Ymr111c), yeast two-hybrid fusion (S. cerevisiae); experiment: as above
# [6] = molecular target: AD-Euc1 81-183 SBM1 (S. cerevisiae) (UniProt Q04461); experiment: as above
# [7] = molecular target: T4, Euc1 (Ymr111c), yeast two-hybrid fusion (S. cerevisiae); experiment: two-hybrid; reporter strain PJ69-7a with Gal4-BD and Gal4-AD fusion constructs; spotted on control or selective media (- His), grown 3 and 6 days
# [8] = molecular target: AD-Euc1 81-183 SBM2 (S. cerevisiae) (UniProt Q04461); experiment: two-hybrid; Euc1 dimerization in Y2H (Appendix Fig S5C, D and S6B); details not shown
Binder,binding [1],binding [7],other results
B1,binds,,binding [2]: binds; binding [3]: binds; binding [4]: binds
B2,binds,,binding [3]: binds; binding [5]: binds
B3,,,binding [6]: binds
B4,,binds,
B5,,,binding [8]: binds
B6,,binds,
B7,,binds,
B8,binds,,
B9,no binding,,
